No constants are given. Whether binding was seen depends on the method and setting. Some binding calls cover weakened binding; strength is not graded here.
Experiments:
[1] = biological target: outer-arm dynein β heavy chain (T. thermophila) (UniProt O76506); assay: cryo-EM structure; freshly purified native OAD (not cross-linked) reconstituted on MTD in 20 mM HEPES pH 7.4, 100 mM KCl, 5 mM MgSO4, 1 mM DTT, on ice 45 min; apo state, no docking complex; two classes MTBS-1 and MTBS-2; MTD lattice refined from the same data; both purified
[2] = biological target: β-tubulin of the microtubule doublet (T. thermophila) (UniProt P41352); assay: as above

Sequences of proteins named here, by UniProt entry; tags and fusion partners are left off.
UniProt P41352: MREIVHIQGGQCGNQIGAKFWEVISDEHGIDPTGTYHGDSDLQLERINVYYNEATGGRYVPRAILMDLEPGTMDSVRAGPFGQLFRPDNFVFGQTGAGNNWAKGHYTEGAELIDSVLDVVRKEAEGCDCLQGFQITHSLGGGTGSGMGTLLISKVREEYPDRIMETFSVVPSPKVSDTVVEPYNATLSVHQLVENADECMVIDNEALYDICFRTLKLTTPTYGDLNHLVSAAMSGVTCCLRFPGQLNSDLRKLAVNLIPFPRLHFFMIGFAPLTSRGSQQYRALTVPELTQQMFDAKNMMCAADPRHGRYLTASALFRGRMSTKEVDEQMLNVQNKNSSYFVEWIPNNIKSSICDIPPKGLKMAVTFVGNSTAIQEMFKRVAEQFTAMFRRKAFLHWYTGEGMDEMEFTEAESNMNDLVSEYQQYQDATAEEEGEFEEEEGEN
UniProt Q22A67: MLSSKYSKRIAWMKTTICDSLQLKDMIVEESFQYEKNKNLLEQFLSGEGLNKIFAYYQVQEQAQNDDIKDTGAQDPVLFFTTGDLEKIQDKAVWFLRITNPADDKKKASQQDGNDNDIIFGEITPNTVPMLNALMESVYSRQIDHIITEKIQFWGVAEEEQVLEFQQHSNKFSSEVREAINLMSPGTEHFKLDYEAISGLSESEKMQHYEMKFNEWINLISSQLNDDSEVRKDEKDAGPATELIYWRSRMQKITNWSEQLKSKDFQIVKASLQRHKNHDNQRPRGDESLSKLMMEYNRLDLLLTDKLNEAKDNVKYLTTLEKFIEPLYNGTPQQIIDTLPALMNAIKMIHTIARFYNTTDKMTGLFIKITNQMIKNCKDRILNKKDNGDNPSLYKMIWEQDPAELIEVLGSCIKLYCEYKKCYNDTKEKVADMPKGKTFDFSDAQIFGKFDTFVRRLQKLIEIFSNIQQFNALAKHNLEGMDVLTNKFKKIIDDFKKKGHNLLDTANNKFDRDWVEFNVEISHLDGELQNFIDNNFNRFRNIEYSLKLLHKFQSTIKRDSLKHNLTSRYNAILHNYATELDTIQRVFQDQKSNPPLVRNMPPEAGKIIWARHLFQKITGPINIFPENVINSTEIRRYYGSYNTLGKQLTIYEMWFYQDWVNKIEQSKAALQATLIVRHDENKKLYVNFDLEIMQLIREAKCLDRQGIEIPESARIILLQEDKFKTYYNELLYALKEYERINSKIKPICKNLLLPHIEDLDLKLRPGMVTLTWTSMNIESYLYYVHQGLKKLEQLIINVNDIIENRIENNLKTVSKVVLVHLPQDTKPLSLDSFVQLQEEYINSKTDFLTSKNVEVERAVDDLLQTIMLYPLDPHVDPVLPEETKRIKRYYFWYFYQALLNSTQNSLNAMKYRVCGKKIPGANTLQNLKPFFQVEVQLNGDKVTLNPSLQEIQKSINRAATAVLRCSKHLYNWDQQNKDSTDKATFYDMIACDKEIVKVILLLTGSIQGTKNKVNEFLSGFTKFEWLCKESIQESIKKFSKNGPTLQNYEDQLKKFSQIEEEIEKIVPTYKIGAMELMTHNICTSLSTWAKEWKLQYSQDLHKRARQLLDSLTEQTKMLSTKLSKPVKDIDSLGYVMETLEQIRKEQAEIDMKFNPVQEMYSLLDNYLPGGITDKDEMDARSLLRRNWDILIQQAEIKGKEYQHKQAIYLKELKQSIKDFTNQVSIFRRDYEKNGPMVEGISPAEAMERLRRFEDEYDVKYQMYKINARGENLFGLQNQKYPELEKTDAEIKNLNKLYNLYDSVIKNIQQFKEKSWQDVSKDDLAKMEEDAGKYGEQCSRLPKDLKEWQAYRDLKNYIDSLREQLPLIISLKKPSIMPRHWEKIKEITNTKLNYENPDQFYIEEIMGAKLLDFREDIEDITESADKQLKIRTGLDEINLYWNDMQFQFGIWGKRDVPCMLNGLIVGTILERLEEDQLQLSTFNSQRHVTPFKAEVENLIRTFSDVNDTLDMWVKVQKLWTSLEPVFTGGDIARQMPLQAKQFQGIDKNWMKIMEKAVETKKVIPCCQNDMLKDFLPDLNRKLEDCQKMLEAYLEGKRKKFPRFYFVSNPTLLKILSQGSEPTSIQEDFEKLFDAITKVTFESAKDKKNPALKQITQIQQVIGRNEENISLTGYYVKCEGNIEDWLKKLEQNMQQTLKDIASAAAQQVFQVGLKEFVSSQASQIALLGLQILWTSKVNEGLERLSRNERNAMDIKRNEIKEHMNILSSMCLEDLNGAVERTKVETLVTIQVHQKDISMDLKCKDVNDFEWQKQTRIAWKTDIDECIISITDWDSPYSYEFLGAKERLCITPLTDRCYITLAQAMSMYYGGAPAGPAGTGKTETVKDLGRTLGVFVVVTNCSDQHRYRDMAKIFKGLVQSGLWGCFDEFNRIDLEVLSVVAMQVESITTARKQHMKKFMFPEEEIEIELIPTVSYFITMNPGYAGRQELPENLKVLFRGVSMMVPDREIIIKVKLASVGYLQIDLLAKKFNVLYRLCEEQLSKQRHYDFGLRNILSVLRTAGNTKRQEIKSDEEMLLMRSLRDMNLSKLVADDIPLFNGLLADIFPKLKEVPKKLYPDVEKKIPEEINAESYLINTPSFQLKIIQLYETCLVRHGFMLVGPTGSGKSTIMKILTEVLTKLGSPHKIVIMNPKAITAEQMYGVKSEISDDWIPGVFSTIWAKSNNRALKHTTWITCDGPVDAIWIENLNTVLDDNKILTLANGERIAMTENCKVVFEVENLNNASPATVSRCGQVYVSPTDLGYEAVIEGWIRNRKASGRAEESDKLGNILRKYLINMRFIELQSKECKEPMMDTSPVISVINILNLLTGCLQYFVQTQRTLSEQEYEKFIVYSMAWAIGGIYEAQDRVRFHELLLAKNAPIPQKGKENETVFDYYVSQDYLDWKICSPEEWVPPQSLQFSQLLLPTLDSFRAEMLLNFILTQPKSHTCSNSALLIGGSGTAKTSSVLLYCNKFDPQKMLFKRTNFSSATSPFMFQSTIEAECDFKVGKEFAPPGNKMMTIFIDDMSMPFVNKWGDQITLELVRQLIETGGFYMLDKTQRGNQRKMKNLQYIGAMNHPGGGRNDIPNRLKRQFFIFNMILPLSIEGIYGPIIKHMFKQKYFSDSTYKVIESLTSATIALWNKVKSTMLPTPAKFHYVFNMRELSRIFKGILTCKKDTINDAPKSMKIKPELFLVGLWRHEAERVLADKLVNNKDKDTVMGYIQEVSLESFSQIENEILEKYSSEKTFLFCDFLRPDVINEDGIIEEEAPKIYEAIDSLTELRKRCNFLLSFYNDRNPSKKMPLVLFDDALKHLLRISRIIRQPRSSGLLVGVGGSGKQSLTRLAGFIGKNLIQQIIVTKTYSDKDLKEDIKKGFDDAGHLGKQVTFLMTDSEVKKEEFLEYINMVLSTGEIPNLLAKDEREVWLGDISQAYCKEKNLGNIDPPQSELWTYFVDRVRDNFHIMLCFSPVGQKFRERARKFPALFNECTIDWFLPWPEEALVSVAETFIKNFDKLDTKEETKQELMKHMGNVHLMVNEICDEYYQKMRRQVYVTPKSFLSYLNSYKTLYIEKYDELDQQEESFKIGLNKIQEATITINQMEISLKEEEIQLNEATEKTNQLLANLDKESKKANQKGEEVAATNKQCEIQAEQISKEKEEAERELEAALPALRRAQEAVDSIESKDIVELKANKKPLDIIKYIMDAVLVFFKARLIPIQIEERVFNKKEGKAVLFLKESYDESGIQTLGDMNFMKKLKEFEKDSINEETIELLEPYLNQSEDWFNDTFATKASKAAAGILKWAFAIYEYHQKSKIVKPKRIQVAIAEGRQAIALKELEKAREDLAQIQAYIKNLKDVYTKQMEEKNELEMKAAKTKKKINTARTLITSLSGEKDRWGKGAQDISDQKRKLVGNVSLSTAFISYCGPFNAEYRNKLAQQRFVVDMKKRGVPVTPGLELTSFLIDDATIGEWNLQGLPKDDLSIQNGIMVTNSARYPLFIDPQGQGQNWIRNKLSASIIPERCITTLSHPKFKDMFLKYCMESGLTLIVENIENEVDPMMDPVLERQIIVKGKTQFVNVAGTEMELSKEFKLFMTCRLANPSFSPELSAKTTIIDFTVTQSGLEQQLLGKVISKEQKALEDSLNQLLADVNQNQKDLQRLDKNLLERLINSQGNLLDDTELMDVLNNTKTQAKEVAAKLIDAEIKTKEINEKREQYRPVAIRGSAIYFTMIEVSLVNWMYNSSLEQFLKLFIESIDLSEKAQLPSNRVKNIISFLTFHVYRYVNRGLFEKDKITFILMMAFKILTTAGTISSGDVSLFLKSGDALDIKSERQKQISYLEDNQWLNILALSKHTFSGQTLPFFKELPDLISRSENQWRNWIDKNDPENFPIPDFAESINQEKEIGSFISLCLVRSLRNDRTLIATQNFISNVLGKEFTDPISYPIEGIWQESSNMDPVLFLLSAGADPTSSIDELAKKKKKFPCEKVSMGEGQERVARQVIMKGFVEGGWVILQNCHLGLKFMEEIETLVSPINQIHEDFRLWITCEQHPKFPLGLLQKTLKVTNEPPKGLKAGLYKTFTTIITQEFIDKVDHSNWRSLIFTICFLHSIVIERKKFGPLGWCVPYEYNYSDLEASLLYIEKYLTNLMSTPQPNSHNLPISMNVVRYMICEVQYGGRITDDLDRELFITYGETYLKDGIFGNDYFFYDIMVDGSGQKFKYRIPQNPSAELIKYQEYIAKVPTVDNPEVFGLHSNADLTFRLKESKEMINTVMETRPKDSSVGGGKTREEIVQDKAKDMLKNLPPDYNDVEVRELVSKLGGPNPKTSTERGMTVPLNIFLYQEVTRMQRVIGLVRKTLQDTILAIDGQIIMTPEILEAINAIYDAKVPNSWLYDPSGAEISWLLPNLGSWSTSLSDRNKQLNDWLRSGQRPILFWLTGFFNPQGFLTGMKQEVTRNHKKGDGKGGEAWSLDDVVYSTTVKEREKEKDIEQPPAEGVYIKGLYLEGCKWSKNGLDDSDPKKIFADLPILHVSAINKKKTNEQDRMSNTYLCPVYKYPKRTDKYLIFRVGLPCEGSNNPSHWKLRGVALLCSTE

Substance	binding [1]	binding [2]
outer-arm dynein α heavy chain (from UniProt Q22A67 1-4620)	binds	–
outer-arm dynein γ heavy chain (from UniProt I7M6H4 1-4168)	binds	binds

From article PMC8500839, “Structures of outer-arm dynein array on microtubule doublet reveal a motor coordination mechanism” (Nature Structural & Molecular Biology, 2021)
